PubChem BioAssay AID1259308 | NCATS, 2017

- Screen: 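Genes whose loss raises luciferase production in HEK293 cells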 (primary screen)
- System: human HEK293 embryonic kidney cells stably expressing firefly luciferase (HEK-CMV-Luc2-Hygro)
- Reagents: single siRNA against human genes, 0.8 pmol siRNA per well
- Time to read-out: 72 h
- Measured: 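Luciferase light (ONE-Glo) measured on one replicate plate set and viability (CellTiter-Glo) on the other, scaled to a negative control siRNA, with robust z-scores and luciferase per cell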
- Reading the numbers: total luciferase, z-score and total luciferase, % of control: higher = more reporter protein produced; luciferase per cell, z-score: higher = more reporter output per viable cell; viable cells, % of control: higher = more viable cells
- Rule for the call: 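Active when the median/MAD z-score for overall luciferase is greater than 3; a gene was taken forward for validation with new siRNAs if at least two of its three siRNAs passed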
- Calls: active = raised luciferase; inactive = no rise
Here is one part, drawn at random, of about 59,000 deposited reagents. In the full data, about 1,510 (2.6%) got an active call. 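Calls use total luciferase alone and ignore viability, so some active siRNAs may act by altering cell number.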 Reagents against one gene are numbered here.

| gene | reagent no. | total luciferase, z-score | total luciferase, % of control | luciferase per cell, z-score | viable cells, % of control | call |
| --- | --- | --- | --- | --- | --- | --- |
| IGFBP1 (insulin like growth factor binding protein 1) | 1 | 1.49 | 111 | 1.45 | 85 | inactive |
| IGFBP1 (insulin like growth factor binding protein 1) | 2 | 0.00569 | 82 | -0.426 | 103 | inactive |
| IGFBP1 (insulin like growth factor binding protein 1) | 3 | -0.102 | 79.9 | -0.364 | 98.2 | inactive |
| SLC7A2 | 1 | -0.362 | 74.7 | -0.913 | 106 | inactive |
| SLC7A2 | 2 | 0.94 | 101 | 1.21 | 81.6 | inactive |
| SLC7A2 | 3 | -0.301 | 75.9 | -0.706 | 102 | inactive |
| COXFA4L2 (cytochrome c oxidase hypoxia associated subunit FA4L2) | 1 | 0.896 | 99.7 | 0.803 | 90.2 | inactive |
| COXFA4L2 (cytochrome c oxidase hypoxia associated subunit FA4L2) | 2 | 0.417 | 90.2 | -0.0895 | 103 | inactive |
| COXFA4L2 (cytochrome c oxidase hypoxia associated subunit FA4L2) | 3 | 0.00179 | 81.9 | -0.153 | 95.3 | inactive |
| PHF14 (PHD finger protein 14) | 1 | -1.13 | 59.4 | -1.55 | 99.9 | inactive |
| PHF14 (PHD finger protein 14) | 2 | 0.592 | 93.7 | -0.19 | 110 | inactive |
| PHF14 (PHD finger protein 14) | 3 | -0.48 | 72.3 | 0.119 | 78.3 | inactive |
| GPRIN2 (G protein regulated inducer of neurite outgrowth 2) | 1 | -0.406 | 73.8 | -0.27 | 88.6 | inactive |
| GPRIN2 (G protein regulated inducer of neurite outgrowth 2) | 2 | 2.2 | 126 | 1.52 | 94.1 | inactive |
| GPRIN2 (G protein regulated inducer of neurite outgrowth 2) | 3 | 0.41 | 90 | -0.579 | 117 | inactive |
| SIPA1L2 (signal induced proliferation associated 1 like 2) | 1 | -0.894 | 64.1 | -0.751 | 87.3 | inactive |
| SIPA1L2 (signal induced proliferation associated 1 like 2) | 2 | -0.261 | 76.7 | -0.178 | 89.8 | inactive |
| SIPA1L2 (signal induced proliferation associated 1 like 2) | 3 | -0.538 | 71.2 | -0.959 | 102 | inactive |
| CCDC40 (coiled-coil domain 40 molecular ruler complex subunit) | 1 | -0.265 | 76.6 | 0.316 | 78.8 | inactive |
| CCDC40 (coiled-coil domain 40 molecular ruler complex subunit) | 2 | 1.67 | 115 | 1.11 | 96 | inactive |
| CCDC40 (coiled-coil domain 40 molecular ruler complex subunit) | 3 | -0.789 | 66.2 | -0.705 | 89.1 | inactive |
| RTP5 (receptor transporter protein 5 (putative)) | 1 | 2.18 | 125 | 2.55 | 71.5 | inactive |
| RTP5 (receptor transporter protein 5 (putative)) | 2 | -0.327 | 75.4 | 0.976 | 65.1 | inactive |
| RTP5 (receptor transporter protein 5 (putative)) | 3 | -1.26 | 56.9 | 0.645 | 53.7 | inactive |
| ZNF384 (zinc finger protein 384) | 1 | -0.0171 | 81.5 | 0.967 | 70.6 | inactive |
| ZNF384 (zinc finger protein 384) | 2 | 0.888 | 99.6 | 2.26 | 61.4 | inactive |
| ZNF384 (zinc finger protein 384) | 3 | -1.35 | 55 | 0.488 | 54.1 | inactive |

11 entries already listed, sorted by “luciferase per cell, z-score”, low to high:
| gene | reagent no. | total luciferase, z-score | total luciferase, % of control | luciferase per cell, z-score | viable cells, % of control | call |
| --- | --- | --- | --- | --- | --- | --- |
| PHF14 (PHD finger protein 14) | 1 | -1.13 | 59.4 | -1.55 | 99.9 | inactive |
| SIPA1L2 (signal induced proliferation associated 1 like 2) | 1 | -0.894 | 64.1 | -0.751 | 87.3 | inactive |
| SLC7A2 | 3 | -0.301 | 75.9 | -0.706 | 102 | inactive |
| GPRIN2 (G protein regulated inducer of neurite outgrowth 2) | 3 | 0.41 | 90 | -0.579 | 117 | inactive |
| GPRIN2 (G protein regulated inducer of neurite outgrowth 2) | 1 | -0.406 | 73.8 | -0.27 | 88.6 | inactive |
| PHF14 (PHD finger protein 14) | 2 | 0.592 | 93.7 | -0.19 | 110 | inactive |
| COXFA4L2 (cytochrome c oxidase hypoxia associated subunit FA4L2) | 3 | 0.00179 | 81.9 | -0.153 | 95.3 | inactive |
| COXFA4L2 (cytochrome c oxidase hypoxia associated subunit FA4L2) | 2 | 0.417 | 90.2 | -0.0895 | 103 | inactive |
| PHF14 (PHD finger protein 14) | 3 | -0.48 | 72.3 | 0.119 | 78.3 | inactive |
| COXFA4L2 (cytochrome c oxidase hypoxia associated subunit FA4L2) | 1 | 0.896 | 99.7 | 0.803 | 90.2 | inactive |
| GPRIN2 (G protein regulated inducer of neurite outgrowth 2) | 2 | 2.2 | 126 | 1.52 | 94.1 | inactive |

Next reagents follow.
| gene | reagent no. | total luciferase, z-score | total luciferase, % of control | luciferase per cell, z-score | viable cells, % of control | call |
| --- | --- | --- | --- | --- | --- | --- |
| CYTIP (cytohesin 1 interacting protein) | 1 | 0.598 | 93.8 | 0.653 | 88.2 | inactive |
| CYTIP (cytohesin 1 interacting protein) | 2 | 0.0109 | 82.1 | 1.47 | 62.3 | inactive |
| CYTIP (cytohesin 1 interacting protein) | 3 | -0.66 | 68.8 | -0.298 | 83.1 | inactive |
| PLEKHD1 (pleckstrin homology and coiled-coil domain containing D1) | 1 | -0.814 | 65.7 | -0.245 | 78.3 | inactive |
| PLEKHD1 (pleckstrin homology and coiled-coil domain containing D1) | 2 | 2.38 | 129 | 2.09 | 83.2 | inactive |
| PLEKHD1 (pleckstrin homology and coiled-coil domain containing D1) | 3 | 1.95 | 121 | 0.928 | 106 | inactive |
| SUN3 (Sad1 and UNC84 domain containing 3) | 1 | 0.182 | 85.5 | 0.346 | 87.2 | inactive |
| SUN3 (Sad1 and UNC84 domain containing 3) | 2 | -1.34 | 55.2 | -1.75 | 97.7 | inactive |
| SUN3 (Sad1 and UNC84 domain containing 3) | 3 | -0.0813 | 80.3 | -0.551 | 104 | inactive |
| AIFM2 (AIF family member 2, ferroptosis suppressor) | 1 | 0.693 | 95.7 | 1.83 | 66.1 | inactive |
| AIFM2 (AIF family member 2, ferroptosis suppressor) | 2 | -0.606 | 69.8 | -1.04 | 103 | inactive |
| AIFM2 (AIF family member 2, ferroptosis suppressor) | 3 | -0.14 | 79.1 | -0.484 | 100 | inactive |
| SCRN3 (secernin 3) | 1 | -0.181 | 78.3 | 0.204 | 82.9 | inactive |
| SCRN3 (secernin 3) | 2 | -0.0282 | 81.3 | -0.318 | 98.8 | inactive |
| SCRN3 (secernin 3) | 3 | 1.16 | 105 | 1.29 | 83.5 | inactive |
| DENND4A (DENN domain containing 4A) | 1 | -1.01 | 61.8 | -0.4 | 76.7 | inactive |
| DENND4A (DENN domain containing 4A) | 2 | 0.181 | 85.5 | 0.431 | 85.3 | inactive |
| DENND4A (DENN domain containing 4A) | 3 | 1.02 | 102 | 0.422 | 102 | inactive |
| FANCL (FA complementation group L) | 1 | -0.781 | 66.4 | -0.961 | 95.5 | inactive |
| FANCL (FA complementation group L) | 2 | 0.772 | 97.2 | 0.87 | 86.4 | inactive |
| FANCL (FA complementation group L) | 3 | -0.764 | 66.7 | -0.419 | 83.2 | inactive |
| SUCNR1 (succinate receptor 1) | 1 | -0.658 | 68.8 | 0.113 | 74.6 | inactive |
| SUCNR1 (succinate receptor 1) | 2 | -0.648 | 69 | -1.17 | 105 | inactive |
| SUCNR1 (succinate receptor 1) | 3 | 0.0113 | 82.1 | -0.75 | 112 | inactive |
| DBR1 (debranching RNA lariats 1) | 1 | -0.739 | 67.2 | -1.23 | 104 | inactive |
| DBR1 (debranching RNA lariats 1) | 2 | -0.0412 | 81.1 | -0.0373 | 91.5 | inactive |
| DBR1 (debranching RNA lariats 1) | 3 | 1.35 | 109 | 1.45 | 82.9 | inactive |
| TPTE (transmembrane phosphatase with tensin homology) | 1 | -0.708 | 67.8 | 0.84 | 60.7 | inactive |
| TPTE (transmembrane phosphatase with tensin homology) | 2 | -0.11 | 79.7 | -0.0497 | 90.2 | inactive |
| TPTE (transmembrane phosphatase with tensin homology) | 3 | -0.0749 | 80.4 | 0.0719 | 88.2 | inactive |
| DNAI7 (dynein axonemal intermediate chain 7) | 1 | 0.891 | 99.6 | 0.257 | 104 | inactive |
| DNAI7 (dynein axonemal intermediate chain 7) | 2 | 1.53 | 112 | 1.03 | 95.6 | inactive |
| DNAI7 (dynein axonemal intermediate chain 7) | 3 | -1.41 | 53.8 | -0.927 | 76.7 | inactive |
| H1-1 (H1.1 linker histone, cluster member) | 1 | 0.866 | 99.1 | 0.676 | 92.7 | inactive |
| H1-1 (H1.1 linker histone, cluster member) | 2 | -0.754 | 66.9 | 0.0758 | 73.3 | inactive |
| H1-1 (H1.1 linker histone, cluster member) | 3 | -1.18 | 58.5 | -0.274 | 70.2 | inactive |
| IVD (isovaleryl-CoA dehydrogenase) | 1 | 0.296 | 87.8 | 0.181 | 93.5 | inactive |
| IVD (isovaleryl-CoA dehydrogenase) | 2 | -0.027 | 81.3 | -0.248 | 97 | inactive |
| IVD (isovaleryl-CoA dehydrogenase) | 3 | 0.157 | 85 | -0.154 | 98.9 | inactive |
| CYB5A (cytochrome b5 type A) | 1 | 1.75 | 117 | 2.91 | 60.5 | inactive |
| CYB5A (cytochrome b5 type A) | 2 | 1.39 | 110 | 1.72 | 77.9 | inactive |
| CYB5A (cytochrome b5 type A) | 3 | -0.245 | 77 | 0.113 | 83.5 | inactive |
| SLC22A9 | 1 | 0.437 | 90.6 | -0.0293 | 102 | inactive |
| SLC22A9 | 2 | 0.379 | 89.4 | -0.283 | 108 | inactive |
| SLC22A9 | 3 | -0.54 | 71.1 | -0.257 | 85.1 | inactive |
| NCOR1P2 (NCOR1 pseudogene 2) | 1 | -0.713 | 67.7 | -0.992 | 98.2 | inactive |
| NCOR1P2 (NCOR1 pseudogene 2) | 2 | 1.19 | 106 | 1.12 | 88 | inactive |
| NCOR1P2 (NCOR1 pseudogene 2) | 3 | 0.153 | 84.9 | -0.044 | 96 | inactive |
